In publication PMC12177071, “Divergence in a eukaryotic transcription factor’s co-TF dependence involves multiple intrinsically disordered regions”:
These are yes or no findings as the source states them, for the method shown. Some entries that bind do so weakly or less than the wild type.

Target: T1, ScPho2 Pho4int (aa 112–407) (S. cerevisiae) (UniProt P07269)
T1 sequence: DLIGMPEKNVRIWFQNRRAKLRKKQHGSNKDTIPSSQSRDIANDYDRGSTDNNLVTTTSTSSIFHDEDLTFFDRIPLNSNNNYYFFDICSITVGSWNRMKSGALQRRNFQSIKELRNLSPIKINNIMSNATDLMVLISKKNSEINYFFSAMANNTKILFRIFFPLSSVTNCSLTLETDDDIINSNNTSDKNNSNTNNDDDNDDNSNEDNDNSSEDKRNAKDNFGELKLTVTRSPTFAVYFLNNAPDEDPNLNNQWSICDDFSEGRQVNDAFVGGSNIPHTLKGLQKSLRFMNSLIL
Experiment: two-hybrid; Gal4 AD and Gal4 DBD fusions (pGAD-C3, pGBD-C3) co-transformed into a gal4Δ gal80Δ S. cerevisiae strain; patches grown at 30 °C for 24 h, replica plated onto SD -leu -trp -ade -his, imaged after 45–50 h; two independent transformants

binding: binds
B1: ScPho4ΔDBD (aa 2–250) (domain or fragment, UniProt P07270 2-250)
chain: GRTTSEGIHGFVDDLEPKSSILDKVGDFITVNTKRHDGREDFNEQNDELNSQENHNSSENGNENENEQDSLALDDLDRAFELVEGMDMDWMMPSHAHHSPATTATIKPRLLYSPLIHTQSAVPVTISPNLVATATSTTSANKVTKNKSNSSPYLNKRRGKPGPDSATSLFELPDSVIPTPKPKPKPKQYPKVILPSNSTRRVSPVTAKTSSSAEGVVVASESPVIAPHGSSHSRSLSKRRSSGALVDDD
